What was measured:
[1] = molecular target: T1, Norepinephrine Transporter (NET) (Homo sapiens, UniProt P23975); assay: cell-based
T1 construct: HA (N); host or cells: HEK293 (ATCC CRL-1573), electroporated, G418-selected population

Sequences of proteins named here, by UniProt entry; tags and fusion partners are left off.
UniProt P23975, whole entry: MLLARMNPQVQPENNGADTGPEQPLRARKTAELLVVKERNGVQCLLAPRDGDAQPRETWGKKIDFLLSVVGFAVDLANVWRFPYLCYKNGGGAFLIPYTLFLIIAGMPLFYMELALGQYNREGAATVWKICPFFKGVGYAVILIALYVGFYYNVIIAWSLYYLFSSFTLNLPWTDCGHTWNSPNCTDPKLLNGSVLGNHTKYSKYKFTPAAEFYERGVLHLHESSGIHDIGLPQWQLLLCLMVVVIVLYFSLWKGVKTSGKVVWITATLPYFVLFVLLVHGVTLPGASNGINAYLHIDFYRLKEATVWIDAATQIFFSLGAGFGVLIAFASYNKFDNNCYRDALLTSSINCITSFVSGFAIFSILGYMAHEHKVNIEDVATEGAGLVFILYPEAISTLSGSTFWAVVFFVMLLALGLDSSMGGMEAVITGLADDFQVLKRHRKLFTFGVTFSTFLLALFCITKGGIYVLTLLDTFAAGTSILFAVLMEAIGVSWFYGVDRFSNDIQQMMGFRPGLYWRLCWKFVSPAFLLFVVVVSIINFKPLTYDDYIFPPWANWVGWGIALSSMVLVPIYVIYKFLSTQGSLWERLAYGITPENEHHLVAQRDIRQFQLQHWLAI

MOR = details: read-out: KI at the MOR (reported); ref [3]; cited from earlier work

For COc1cccc(C2(O)CCCCC2CN(C)C)c1 (centres unmarked) [Tramadol], the IC50 [1] is given as over 2 µM and the Ki (MOR) is given as over 10 µM.

From article PMC6553708 (PLoS ONE, 2019)
